The supplement of paper PMC10849652
The list shows a part of the results.

By UniProt entry, the sequences of proteins in these tests, tags left out. Where a name states a change or a piece, a line headed by the entry shows the natural chain unless it says otherwise.
UniProt Q9UPN7: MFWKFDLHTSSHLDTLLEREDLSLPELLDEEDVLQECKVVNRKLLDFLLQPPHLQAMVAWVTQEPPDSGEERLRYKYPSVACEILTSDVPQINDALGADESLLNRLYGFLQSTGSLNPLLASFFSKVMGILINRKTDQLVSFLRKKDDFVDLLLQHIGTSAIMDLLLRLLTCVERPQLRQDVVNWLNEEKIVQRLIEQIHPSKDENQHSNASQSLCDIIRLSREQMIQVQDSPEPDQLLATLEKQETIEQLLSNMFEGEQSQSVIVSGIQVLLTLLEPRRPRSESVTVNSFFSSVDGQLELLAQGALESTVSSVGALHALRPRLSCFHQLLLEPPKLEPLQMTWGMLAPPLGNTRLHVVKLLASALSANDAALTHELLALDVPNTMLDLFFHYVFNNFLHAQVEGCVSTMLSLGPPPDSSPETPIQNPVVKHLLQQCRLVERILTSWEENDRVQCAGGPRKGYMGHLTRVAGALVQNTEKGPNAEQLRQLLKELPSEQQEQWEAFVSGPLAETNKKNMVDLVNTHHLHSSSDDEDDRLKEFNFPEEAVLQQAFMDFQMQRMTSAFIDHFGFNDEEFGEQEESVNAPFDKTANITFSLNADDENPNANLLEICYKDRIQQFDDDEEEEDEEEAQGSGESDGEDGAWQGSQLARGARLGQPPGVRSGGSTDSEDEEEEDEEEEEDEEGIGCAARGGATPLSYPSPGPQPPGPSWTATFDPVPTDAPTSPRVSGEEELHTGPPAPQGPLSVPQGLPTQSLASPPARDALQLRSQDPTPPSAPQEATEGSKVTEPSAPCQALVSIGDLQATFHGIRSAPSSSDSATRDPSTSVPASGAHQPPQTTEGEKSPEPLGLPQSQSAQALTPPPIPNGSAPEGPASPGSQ
UniProt Q9Y255: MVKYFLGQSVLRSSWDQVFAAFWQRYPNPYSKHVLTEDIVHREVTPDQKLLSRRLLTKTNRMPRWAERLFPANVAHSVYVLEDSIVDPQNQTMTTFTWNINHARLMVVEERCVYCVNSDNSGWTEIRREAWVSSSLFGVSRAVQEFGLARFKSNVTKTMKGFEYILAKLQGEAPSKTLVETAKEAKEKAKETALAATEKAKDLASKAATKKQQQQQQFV
UniProt O94906: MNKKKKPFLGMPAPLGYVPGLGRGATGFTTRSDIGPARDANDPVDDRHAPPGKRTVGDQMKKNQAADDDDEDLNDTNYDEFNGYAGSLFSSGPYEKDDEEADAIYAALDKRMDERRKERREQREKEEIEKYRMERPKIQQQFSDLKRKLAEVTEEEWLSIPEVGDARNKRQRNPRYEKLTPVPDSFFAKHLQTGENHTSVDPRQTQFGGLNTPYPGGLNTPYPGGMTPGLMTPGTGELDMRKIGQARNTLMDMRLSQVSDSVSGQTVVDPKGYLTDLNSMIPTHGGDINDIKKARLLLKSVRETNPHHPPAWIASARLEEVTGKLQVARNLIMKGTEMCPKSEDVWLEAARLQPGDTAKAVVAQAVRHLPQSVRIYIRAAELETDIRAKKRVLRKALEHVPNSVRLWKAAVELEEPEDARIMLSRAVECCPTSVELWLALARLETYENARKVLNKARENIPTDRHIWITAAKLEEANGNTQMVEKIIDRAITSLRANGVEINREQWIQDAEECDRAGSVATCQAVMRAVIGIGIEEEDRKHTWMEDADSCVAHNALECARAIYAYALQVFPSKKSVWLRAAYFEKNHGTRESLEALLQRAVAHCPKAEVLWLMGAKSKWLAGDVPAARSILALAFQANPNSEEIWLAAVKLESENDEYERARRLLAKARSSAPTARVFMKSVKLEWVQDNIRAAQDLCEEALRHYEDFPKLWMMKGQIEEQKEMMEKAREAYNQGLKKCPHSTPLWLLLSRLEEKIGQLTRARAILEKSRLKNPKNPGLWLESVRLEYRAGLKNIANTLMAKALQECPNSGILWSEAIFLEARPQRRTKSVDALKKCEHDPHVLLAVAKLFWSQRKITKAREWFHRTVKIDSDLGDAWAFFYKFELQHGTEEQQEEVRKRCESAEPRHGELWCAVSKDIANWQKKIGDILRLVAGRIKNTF
UniProt O75807, whole entry, looked up: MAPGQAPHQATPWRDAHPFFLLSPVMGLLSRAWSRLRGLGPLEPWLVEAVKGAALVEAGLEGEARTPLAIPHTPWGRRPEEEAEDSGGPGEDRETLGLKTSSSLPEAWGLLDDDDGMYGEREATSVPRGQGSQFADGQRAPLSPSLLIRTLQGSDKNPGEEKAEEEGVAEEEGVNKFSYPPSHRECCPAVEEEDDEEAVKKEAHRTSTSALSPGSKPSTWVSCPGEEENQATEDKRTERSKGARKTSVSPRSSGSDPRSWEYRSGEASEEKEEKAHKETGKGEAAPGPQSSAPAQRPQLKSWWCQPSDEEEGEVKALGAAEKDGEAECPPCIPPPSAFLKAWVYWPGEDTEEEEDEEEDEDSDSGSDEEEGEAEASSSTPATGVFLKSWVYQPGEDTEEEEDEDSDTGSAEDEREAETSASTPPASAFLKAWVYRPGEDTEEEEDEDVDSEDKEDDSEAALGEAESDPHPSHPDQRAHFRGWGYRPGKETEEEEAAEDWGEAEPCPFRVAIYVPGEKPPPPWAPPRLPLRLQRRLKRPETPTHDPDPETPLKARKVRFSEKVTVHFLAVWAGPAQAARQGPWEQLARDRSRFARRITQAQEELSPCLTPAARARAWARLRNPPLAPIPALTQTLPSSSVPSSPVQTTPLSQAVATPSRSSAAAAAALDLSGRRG
UniProt O60256: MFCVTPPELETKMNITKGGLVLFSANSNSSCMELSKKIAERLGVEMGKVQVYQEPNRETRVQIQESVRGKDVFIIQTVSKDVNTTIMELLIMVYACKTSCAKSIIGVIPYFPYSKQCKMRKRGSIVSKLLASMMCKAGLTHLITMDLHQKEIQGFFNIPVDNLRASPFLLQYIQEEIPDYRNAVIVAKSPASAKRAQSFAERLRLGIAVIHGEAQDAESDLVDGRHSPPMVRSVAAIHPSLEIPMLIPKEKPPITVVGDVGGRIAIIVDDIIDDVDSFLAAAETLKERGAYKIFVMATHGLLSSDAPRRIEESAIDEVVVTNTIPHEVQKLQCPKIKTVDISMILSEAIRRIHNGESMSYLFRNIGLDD
UniProt P10644, whole entry, looked up: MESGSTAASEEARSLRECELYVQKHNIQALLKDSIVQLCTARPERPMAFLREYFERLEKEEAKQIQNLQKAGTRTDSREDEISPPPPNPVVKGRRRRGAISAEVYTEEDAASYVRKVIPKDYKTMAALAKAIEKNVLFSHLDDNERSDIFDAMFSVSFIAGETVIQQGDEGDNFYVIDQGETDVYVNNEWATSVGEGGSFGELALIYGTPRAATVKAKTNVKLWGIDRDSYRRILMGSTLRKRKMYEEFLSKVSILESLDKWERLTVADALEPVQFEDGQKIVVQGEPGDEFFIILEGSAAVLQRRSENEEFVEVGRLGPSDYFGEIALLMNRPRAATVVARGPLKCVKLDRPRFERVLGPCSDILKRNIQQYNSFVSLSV
UniProt Q9BZL6: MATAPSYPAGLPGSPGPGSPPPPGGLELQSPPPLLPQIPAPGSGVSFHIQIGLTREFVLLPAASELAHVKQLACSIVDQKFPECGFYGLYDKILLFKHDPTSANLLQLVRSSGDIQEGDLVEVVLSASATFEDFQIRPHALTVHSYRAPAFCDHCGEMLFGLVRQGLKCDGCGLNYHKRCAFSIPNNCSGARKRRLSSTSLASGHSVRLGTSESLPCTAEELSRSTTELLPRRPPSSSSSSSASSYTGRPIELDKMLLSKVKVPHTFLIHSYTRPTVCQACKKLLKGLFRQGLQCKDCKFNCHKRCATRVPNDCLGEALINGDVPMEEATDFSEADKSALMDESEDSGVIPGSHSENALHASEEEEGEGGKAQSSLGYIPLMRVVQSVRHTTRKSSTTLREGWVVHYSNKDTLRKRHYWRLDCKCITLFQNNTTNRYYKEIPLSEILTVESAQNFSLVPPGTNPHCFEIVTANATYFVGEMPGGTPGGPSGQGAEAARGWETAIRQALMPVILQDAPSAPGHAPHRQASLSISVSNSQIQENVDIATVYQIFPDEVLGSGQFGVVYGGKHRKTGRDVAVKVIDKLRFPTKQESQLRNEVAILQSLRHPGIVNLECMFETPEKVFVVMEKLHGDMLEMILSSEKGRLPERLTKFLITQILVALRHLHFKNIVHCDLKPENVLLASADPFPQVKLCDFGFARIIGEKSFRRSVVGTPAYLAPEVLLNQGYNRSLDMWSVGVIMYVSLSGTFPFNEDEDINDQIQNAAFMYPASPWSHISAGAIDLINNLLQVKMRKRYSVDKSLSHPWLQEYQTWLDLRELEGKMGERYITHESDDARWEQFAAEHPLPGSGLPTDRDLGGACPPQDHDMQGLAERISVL
UniProt Q05655: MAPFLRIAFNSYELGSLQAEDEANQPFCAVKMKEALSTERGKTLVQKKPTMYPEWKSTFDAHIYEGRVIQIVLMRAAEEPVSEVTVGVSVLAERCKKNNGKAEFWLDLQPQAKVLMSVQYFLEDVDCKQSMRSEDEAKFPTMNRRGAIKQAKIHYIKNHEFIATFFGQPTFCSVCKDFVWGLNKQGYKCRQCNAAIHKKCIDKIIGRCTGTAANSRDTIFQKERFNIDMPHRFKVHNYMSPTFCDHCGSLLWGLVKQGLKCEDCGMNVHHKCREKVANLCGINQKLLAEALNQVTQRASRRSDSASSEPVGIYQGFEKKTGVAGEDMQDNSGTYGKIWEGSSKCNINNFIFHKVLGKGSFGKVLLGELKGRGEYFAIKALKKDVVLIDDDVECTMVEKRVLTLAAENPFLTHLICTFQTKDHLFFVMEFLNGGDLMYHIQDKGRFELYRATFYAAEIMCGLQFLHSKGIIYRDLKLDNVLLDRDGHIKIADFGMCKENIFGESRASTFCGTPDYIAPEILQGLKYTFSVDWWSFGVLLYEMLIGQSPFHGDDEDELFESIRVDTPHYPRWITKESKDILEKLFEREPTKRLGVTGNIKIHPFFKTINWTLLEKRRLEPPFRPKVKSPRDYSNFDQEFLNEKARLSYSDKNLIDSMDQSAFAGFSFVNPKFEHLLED
UniProt P42785: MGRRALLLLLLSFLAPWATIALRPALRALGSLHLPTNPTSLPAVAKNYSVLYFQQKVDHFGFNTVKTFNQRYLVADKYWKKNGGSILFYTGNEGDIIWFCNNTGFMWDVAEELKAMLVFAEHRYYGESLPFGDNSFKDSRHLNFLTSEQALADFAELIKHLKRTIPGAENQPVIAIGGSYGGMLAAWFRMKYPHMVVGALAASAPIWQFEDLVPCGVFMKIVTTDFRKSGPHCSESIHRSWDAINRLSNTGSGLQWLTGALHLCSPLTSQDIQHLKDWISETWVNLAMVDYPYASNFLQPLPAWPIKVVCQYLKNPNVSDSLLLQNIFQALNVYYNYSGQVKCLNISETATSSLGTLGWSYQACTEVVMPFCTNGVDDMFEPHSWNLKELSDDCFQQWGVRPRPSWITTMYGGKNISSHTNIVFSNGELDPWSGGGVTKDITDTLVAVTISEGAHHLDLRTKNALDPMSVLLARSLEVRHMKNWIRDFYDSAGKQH
UniProt Q8NAV1: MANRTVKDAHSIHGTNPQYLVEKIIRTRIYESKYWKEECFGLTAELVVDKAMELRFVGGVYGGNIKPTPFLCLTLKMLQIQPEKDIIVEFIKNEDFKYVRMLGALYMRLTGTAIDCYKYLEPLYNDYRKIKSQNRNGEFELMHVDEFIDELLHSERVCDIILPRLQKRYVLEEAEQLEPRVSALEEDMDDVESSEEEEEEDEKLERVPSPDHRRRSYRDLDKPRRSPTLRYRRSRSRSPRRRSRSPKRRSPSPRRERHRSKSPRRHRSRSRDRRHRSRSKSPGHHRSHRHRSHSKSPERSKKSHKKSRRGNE

Key:
Test in all cases: log2 fold change, soluble protein after heating vs DMSO (PISA); higher = thermal stabilisation; K562 cells, 10 uM, 30 min; active = over 0.2 and 3.5 SD of the protein, either way, in both replicates (recomputed)
[1] = compound: CS(=O)(=O)c1ccc(-c2cnc(N)c(C(=O)Nc3ccccc3)n2)cc1
Outline: (§1)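 Values are thermal stability changes relative to control samples and are taken from duplicates. They are stated as log2 fold changes. Before quantification by TMTpro 16plex LC-MS/MS with equalised channel sums, K562 cells at 2×10^6 cells/mL were treated with 10 μM compound for 30 min, heated in aliquots for 3 min across 48°C-58°C, pooled, extracted in PBS with 0.5% NP-40 at 4°C, and centrifuged at 21,000xg for 90 min to give the soluble supernatant.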

[2] = compound: C[C@@H](Oc1cc(-c2cnn(C3CCNCC3)c2)cnc1N)c1c(Cl)ccc(F)c1Cl [crizotinib]
Outline: as §1

[3] = compound: C[C@H](C1=CC=C(C=C1)C(=O)NC2=C3C=CNC3=NC=C2)N
Outline: as §1

[4] = compound: Cc1cc(Nc2cc(CN3CCOCC3)c3nc(C)c(Cc4ccc(Cl)cc4F)n3n2)n[nH]1 [gandotinib]
Outline: as §1

[5] = compound: Cc1cc(SCc2sc(-c3ccc(C(F)(F)F)cc3)nc2C)ccc1OCC(=O)O
Outline: as §1

[6] = compound: Cc1ccc(-n2nc(C(C)(C)C)cc2NC(=O)Nc2ccc(OCCN3CCOCC3)c3ccccc23)cc1 [doramapimod]
Outline: as §1

[7] = compound: Cc1ccc(C(=O)N(CCCN)[C@@H](c2nc3cc(Cl)ccc3c(=O)n2Cc2ccccc2)C(C)C)cc1 [ispinesib]
Outline: as §1

[8] = compound: Cc1ccc(NC(=O)c2ccc(CN3CC[C@H](N(C)C)C3)c(C(F)(F)F)c2)cc1Nc1nccc(-c2cncnc2)n1 [bafetinib]
Outline: as §1

[9] = compound: Cc1cccc(CC(=O)N2CCc3c2ccc(-c2cn(C)c4ncnc(N)c24)c3F)n1
Outline: as §1

[10] = compound: Cc1nc(Nc2ncc(C(=O)Nc3c(C)cccc3Cl)s2)cc(N2CCN(CCO)CC2)n1 [dasatinib]
Outline: as §1

[11] = compound: Cn1cc(-c2ccc3c(c2)CCN3C(=O)Cc2cccc(C(F)(F)F)c2)c2c(N)ncnc21
Outline: as §1

[12] = compound: Cn1cc(-c2ccc3nnc(C(F)(F)c4ccc5ncccc5c4)n3n2)cn1
Outline: as §1

[13] = compound: FC(F)(F)c1ccc(/C=C/c2nc(COc3ccc(CCCCn4ccnn4)cc3)co2)cc1 [mubritinib]
Outline: as §1

[14] = compound: C[C@@H]1COCCN1C2=NC(=NC(=C2)C3(CC3)S(=O)(=O)C)C4=C5C=CNC5=CC=C4
Outline: as §1

[15] = compound: Cc1cn(-c2cc(NC(=O)c3ccc(C)c(Nc4nccc(-c5cccnc5)n4)c3)cc(C(F)(F)F)c2)cn1 [nilotinib]
Outline: as §1

[16] = compound: Cc1nc(Nc2n[nH]c3c2CN(C(=O)N[C@H](CN(C)C)c2ccccc2)C3(C)C)c2sccc2n1
Outline: as §1

[17] = compound: Cc1ncc(-c2ccnc(Nc3ccc(S(C)(=O)=O)cc3)n2)n1C(C)C
Outline: as §1

[18] = compound: Cn1cncc1[C@@](N)(c1ccc(Cl)cc1)c1ccc2c(c1)c(-c1cccc(Cl)c1)cc(=O)n2C [tipifarnib]
Outline: as §1

[19] = compound: Cc1cc(Nc2cc(N3CCN(C)CC3)nc(Sc3ccc(NC(=O)C4CC4)cc3)n2)n[nH]1 [tozasertib]
Outline: as §1

[20] = compound: C[C@H](Nc1ncnc2nc[nH]c12)c1cc2cccc(Cl)c2c(=O)n1-c1ccccc1 [duvelisib]
Outline: as §1

| Target | log2 fold change [1] | log2 fold change [2] | log2 fold change [3] | log2 fold change [4] | log2 fold change [5] | log2 fold change [6] | log2 fold change [7] | log2 fold change [8] | log2 fold change [9] | log2 fold change [10] | log2 fold change [11] | log2 fold change [12] | log2 fold change [13] | log2 fold change [14] | log2 fold change [15] | log2 fold change [16] | log2 fold change [17] | log2 fold change [18] | log2 fold change [19] | log2 fold change [20] |
| --- | --- | --- | --- | --- | --- | --- | --- | --- | --- | --- | --- | --- | --- | --- | --- | --- | --- | --- | --- | --- |
| PRKD3 (UniProt O94806) | inactive: -0.132 | inactive: -0.292 | inactive: -0.189 | inactive: 0.092 | inactive: 0.039 | inactive: -0.088 | inactive: -0.237 | inactive: -0.011 | inactive: -0.231 | inactive: -0.258 | inactive: -0.079 | inactive: 0.006 | inactive: -0.062 |  |  |  |  |  |  |  |
| PPP6R1 (UniProt Q9UPN7) | inactive: -0.013 | inactive: -0.018 | inactive: 0.012 | inactive: -0.078 | inactive: -0.01 | inactive: 0.01 | inactive: -0.002 | inactive: -0.024 | inactive: 0.022 | inactive: -0.02 | inactive: 0.003 | inactive: 0.02 | inactive: 0.043 | inactive: 0.125 | inactive: 0.003 | inactive: -0.031 | inactive: -0.008 | inactive: 0.01 |  |  |
| PRELID1 (UniProt Q9Y255) | inactive: -0.005 | inactive: 0.013 |  | inactive: 0.052 |  | inactive: 0.025 |  | inactive: 0.145 | inactive: -0.04 |  |  |  | inactive: -0.081 | inactive: -0.064 | inactive: 0.124 | inactive: -0.074 | inactive: -0.117 | inactive: 0.306 | inactive: 0.123 |  |
| PRKCG (UniProt P05129) | inactive: 0.078 | inactive: -0.005 | inactive: 0.028 | inactive: -0.149 | inactive: 0.11 | inactive: -0.029 | inactive: 0 | inactive: -0.012 | inactive: 0.067 | inactive: 0.022 | inactive: 0.015 | inactive: -0.132 | inactive: 0.047 | inactive: 0.188 | inactive: 0.019 | inactive: -0.385 | inactive: 0.018 | inactive: -0.095 |  |  |
| PRPF6 (UniProt O94906) | inactive: 0.072 | inactive: -0.093 |  | inactive: 0.181 | inactive: -0.103 | inactive: 0.488 | inactive: -0.208 | inactive: 0.115 | inactive: -0.182 | inactive: -0.035 |  | inactive: -0.11 |  | inactive: -0.091 |  |  |  |  | inactive: 0.18 | inactive: -0.111 |
| PPP3CA (UniProt Q08209) | inactive: -0.034 | inactive: 0.074 | inactive: -0.05 | inactive: -0.126 | inactive: 0.112 | inactive: -0.058 | inactive: 0.061 | inactive: -0.085 | inactive: -0.034 | inactive: 0.036 | inactive: 0.076 | inactive: 0 | inactive: 0.044 |  | inactive: -0.149 | inactive: 0.052 | inactive: 0.046 | inactive: -0.019 | inactive: 0.101 | inactive: 0.016 |
| PPP2R5A (UniProt Q15172) | inactive: -0.018 | inactive: -0.154 | inactive: 0.022 | inactive: -0.21 | inactive: 0.072 | inactive: -0.019 | inactive: -0.056 | inactive: -0.008 | inactive: 0.027 | inactive: -0.205 | inactive: 0.032 | inactive: 0.006 | inactive: 0.012 | inactive: 0.014 | inactive: -0.075 | inactive: -0.039 | inactive: 0.006 | inactive: -0.179 |  |  |
| PROSER3, A0A2R8Y8D9 | inactive: 0.016 |  | inactive: -0.078 |  | inactive: 0.061 |  |  |  |  | inactive: -0.03 | inactive: 0.047 |  | inactive: -0.225 | inactive: -0.132 |  |  |  |  | inactive: -0.011 | inactive: 0.049 |
| PPP1R15A (UniProt O75807) | inactive: 0.068 | inactive: -0.426 |  |  |  | inactive: -0.493 |  |  |  |  |  |  |  | inactive: 0.069 |  |  |  | inactive: -0.047 |  |  |
| PPP1R9A isoform 3 (UniProt Q9ULJ8) | inactive: -0.33 | inactive: 0.047 |  |  | inactive: -0.002 | inactive: 0.064 | inactive: -0.017 | inactive: -0.009 |  | inactive: 0 |  | inactive: 0.005 | inactive: -0.111 | inactive: -0.017 | inactive: -0.028 | inactive: -0.018 | inactive: 0.091 |  |  | inactive: -0.079 |
| PRKCE (UniProt Q02156) | inactive: 0.051 | inactive: -0.071 | inactive: -0.168 | inactive: -0.092 | inactive: 0.055 | inactive: -0.003 |  | inactive: 0.001 | inactive: 0.02 | inactive: -0.118 | inactive: 0.051 |  | inactive: 0.052 | inactive: 0.083 | inactive: -0.024 | active: -0.335 | inactive: 0.004 | inactive: -0.049 |  |  |
| PRPSAP2 (UniProt O60256) | inactive: 0 | inactive: 0.01 | inactive: -0.016 | inactive: 0.114 | inactive: 0.023 | inactive: -0.007 | inactive: 0.012 | inactive: -0.034 | inactive: 0.124 | inactive: -0.028 | inactive: -0.037 | inactive: -0.018 | inactive: -0.008 | inactive: 0.112 | inactive: -0.024 | inactive: 0.064 | inactive: -0.005 | inactive: 0.023 |  |  |
| PRKAR1A (UniProt P10644) | inactive: 0.209 | inactive: 0.259 | inactive: 0.173 | inactive: 0.139 | inactive: 0.001 | inactive: 0 | inactive: -0.06 | inactive: 0.232 | inactive: -0.006 | inactive: -0.046 | inactive: 0 | inactive: 0.281 | inactive: -0.169 | inactive: 0.03 | inactive: 0.12 | inactive: 0.195 | inactive: 0.152 | inactive: 0.231 |  |  |
| PRKD2 isoform 3 (UniProt Q9BZL6) | inactive: -0.275 | inactive: -0.39 | inactive: -0.111 | inactive: 0.017 | inactive: -0.014 | inactive: 0.023 | inactive: -0.129 | inactive: -0.16 | inactive: 0.045 | inactive: -0.139 | inactive: 0.057 | inactive: 0.045 | inactive: 0.099 | inactive: 0.108 | inactive: -0.204 | active: -0.698 | inactive: -0.145 | inactive: -0.123 |  |  |
| PRKCD (UniProt Q05655) | inactive: 0.05 | inactive: -0.008 | inactive: -0.215 | inactive: -0.056 | inactive: 0.007 | inactive: 0.005 | inactive: -0.007 | inactive: -0.028 | inactive: -0.007 | inactive: -0.049 | inactive: 0.027 | inactive: 0.102 | inactive: 0.08 | inactive: 0.053 | inactive: 0.033 | active: -0.261 | inactive: -0.021 | inactive: 0.008 |  |  |
| PRKACB isoform 2 (UniProt P22694) | inactive: -0.009 | inactive: -0.145 | inactive: -0.039 | inactive: -0.091 | inactive: 0.047 | inactive: 0.028 | inactive: -0.043 | inactive: -0.06 | inactive: 0.04 | inactive: -0.021 | inactive: -0.013 | inactive: -0.004 | inactive: 0.051 | inactive: 0.033 | inactive: -0.021 | active: 0.647 | inactive: -0.037 | inactive: -0.144 |  |  |
| PRCP (UniProt P42785) | inactive: 0.012 | inactive: -0.078 | inactive: -0.037 | inactive: 0.006 | inactive: -0.037 | inactive: -0.034 | inactive: -0.096 | inactive: -0.209 | inactive: -0.018 | inactive: -0.021 | inactive: 0.02 | inactive: 0.008 | inactive: 0.057 | inactive: -0.088 | inactive: 0.011 | inactive: 0.009 | inactive: -0.009 | inactive: 0.055 |  |  |
| PPP1R35 (UniProt Q8TAP8) | inactive: -0.025 | inactive: -0.036 | inactive: -0.037 | inactive: 0.044 | inactive: 0.025 | inactive: 0.024 | inactive: -0.058 | inactive: -0.039 | inactive: 0.058 | inactive: -0.04 | inactive: -0.024 | inactive: -0.042 | inactive: 0.065 | inactive: 0.179 | inactive: 0.008 | inactive: -0.031 | inactive: -0.095 | inactive: -0.022 |  |  |
| PRPF38A (UniProt Q8NAV1) | inactive: -0.029 | inactive: 0.018 | inactive: 0.009 | inactive: -0.042 | inactive: 0.017 | inactive: 0.006 | inactive: -0.024 | inactive: 0.048 | inactive: 0.025 | inactive: -0.033 | inactive: -0.011 | inactive: -0.08 | inactive: 0.201 | inactive: 0.017 | inactive: -0.006 | active: -0.871 | inactive: -0.073 | inactive: 0.036 |  |  |

Not a retest: an excerpt of the list.

| Target | log2 fold change [1] | log2 fold change [2] | log2 fold change [3] | log2 fold change [4] | log2 fold change [5] | log2 fold change [6] | log2 fold change [7] | log2 fold change [8] | log2 fold change [9] | log2 fold change [10] | log2 fold change [11] | log2 fold change [12] | log2 fold change [13] | log2 fold change [14] | log2 fold change [15] | log2 fold change [16] | log2 fold change [17] | log2 fold change [18] | log2 fold change [19] | log2 fold change [20] |
| --- | --- | --- | --- | --- | --- | --- | --- | --- | --- | --- | --- | --- | --- | --- | --- | --- | --- | --- | --- | --- |
| PRKACB isoform 2 (UniProt P22694) | inactive: -0.009 | inactive: -0.145 | inactive: -0.039 | inactive: -0.091 | inactive: 0.047 | inactive: 0.028 | inactive: -0.043 | inactive: -0.06 | inactive: 0.04 | inactive: -0.021 | inactive: -0.013 | inactive: -0.004 | inactive: 0.051 | inactive: 0.033 | inactive: -0.021 | active: 0.647 | inactive: -0.037 | inactive: -0.144 |  |  |
| PRCP (UniProt P42785) | inactive: 0.012 | inactive: -0.078 | inactive: -0.037 | inactive: 0.006 | inactive: -0.037 | inactive: -0.034 | inactive: -0.096 | inactive: -0.209 | inactive: -0.018 | inactive: -0.021 | inactive: 0.02 | inactive: 0.008 | inactive: 0.057 | inactive: -0.088 | inactive: 0.011 | inactive: 0.009 | inactive: -0.009 | inactive: 0.055 |  |  |
